Publication PMC11681384
Substitutions are numbered along the chain they refer to. Results are given in words; binding and its absence hold for the method and conditions named. For some of these results: Binding seen in cells or lysates may run through a third protein. Some binding calls cover weakened binding; strength is not graded here.

T1: RPM1-interacting protein 4 (RIN4), pSPYNE::RIN4 (Arabidopsis thaliana) (UniProt Q8GYN5)
T1 sequence: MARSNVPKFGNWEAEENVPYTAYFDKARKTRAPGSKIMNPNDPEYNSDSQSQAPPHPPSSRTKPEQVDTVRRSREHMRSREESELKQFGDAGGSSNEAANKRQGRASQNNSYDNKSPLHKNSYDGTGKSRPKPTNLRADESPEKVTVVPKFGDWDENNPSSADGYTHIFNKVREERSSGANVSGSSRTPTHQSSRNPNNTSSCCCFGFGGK

T2: RIN4^T21E/S160E/T166D, bait in pDEST32 (Arabidopsis thaliana) (UniProt Q8GYN5)
T2 sequence: T1 sequence with T21E, S160E, T166D

T3: RPM1-interacting protein 4 (RIN4), full-length, bait in pDEST32 (Arabidopsis thaliana) (UniProt Q8GYN5)
T3 sequence: T1 sequence

T4: RIN4^T166D, bait in pDEST32 (Arabidopsis thaliana) (UniProt Q8GYN5)
T4 sequence: T1 sequence with T166D

B1: Exo70B1, pSPYCE::Exo70B1 (protein, UniProt Q9FGH9 1-624)
chain: MAENGEEKLLAVARHIAKTLGHNESMADDILQIFSNFDGRFSREKLAEGQAGEDGSGVATLERALNSIDGQISRFVAADQPIWADPADSAAFLDTIDELVAIIREWSPMASEKPIGICLTRADDMMQQAMFRIEEEFRSLMERGAESFGLNPQGDAGAMNHRFDSEEEEDDDRDFNNGDDIQIPVAQPLTDYDLIIDALPSATINDLHEMAKRMLGAGFGKACSHVYSSCRREFLEESMSRLGLQKLSIEEVHKMPWQELEDEIDRWIKAANVALRILFPSERRLCDRVFFGFSSAADLSFMEVCRGSTIQLLNFADAIAIGSRSPERLFKVLDVFETMRDLMPEFESVFSDQFCSVLRNEAVTIWKRLGEAIRGIFMELENLIRRDPAKAAVPGGGLHPITRYVMNYLRAACRSRQTLEQVFEESNGVPSKDSTLLTVQMSWIMELLESNLEVKSKVYKDPALCYVFLMNNGRYIVQKVKDGDLGLLLGDDWIRKHNVKVKQYHMNYQRSSWNKMLGLLKVDNTAAGMNGLGKTMKEKLKQFNIQFDEICKVHSTWVVFDEQLKEELKISLARLLVPAYGSFIGRFQNLGDIGKNADKYIKYGVEDIEARINELFKGTTTGRK
B2: EXO70B1, prey in pDEST22 (protein, UniProt Q9FGH9 1-624)
chain: B1 chain

Columns and labels:
[1] = biological target: T1, RPM1-interacting protein 4 (RIN4), pSPYNE::RIN4 (Arabidopsis thaliana); experiment: split reporter; split-YFP; pSPYNE::RIN4 and pSPYCE::Exo70B1 co-expressed by Agrobacterium GV3101 infiltration in N. benthamiana leaves; fluorescence observed 72 h post-infiltration
[2] = biological target: T2, RIN4^T21E/S160E/T166D, bait in pDEST32 (Arabidopsis thaliana); experiment: two-hybrid; RIN4 variants as bait in pDEST32, EXO70B1 as prey in pDEST22; yeast strain AH109; transformants selected on SD-Leu-Trp, positive clones plated on SD-Leu-Trp-Ura-His
[3] = biological target: T3, RPM1-interacting protein 4 (RIN4), full-length, bait in pDEST32 (Arabidopsis thaliana); experiment: as above
[4] = biological target: T4, RIN4^T166D, bait in pDEST32 (Arabidopsis thaliana); experiment: as above

| Binder | binding [1] | binding [2] | binding [3] | binding [4] |
| --- | --- | --- | --- | --- |
| B1 | binds |  |  |  |
| B2 |  | no binding | binds | no binding |
